# Reference: PubChem BioAssay AID504467 (National Center for Advancing Translational Sciences (NCATS), 2011)
# Screen size: about 330,000 compounds; about 7,700 (2.3%) were called active. This list was built around the results that the source calls inconclusive (neither active nor inactive); the mix of calls is not that of the screen. The call rests on the fitted dose curve; in most records, active means well fitted inhibition curve with a large enough effect; inconclusive means small, poorly fitted or top-dose-only effect, or effect the other way; inactive means flat fitted curve, though single readings scatter. Potencies beside an inconclusive call are fits to weak or partial responses and may not hold up.
# Experiment: qHTS screen for small molecules that inhibit ELG1-dependent DNA repair in human embryonic kidney (HEK293T) cells expressing luciferase-tagged ELG1; further: nearly all actives have a fitted effect of over 55% in size
# Conditions: HEK293T ELG1-luciferase reporter, luminescence, 16 h, DNA damage induced by 5-fluorouridine; series mostly up to 46.1 µM
# How it was run: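 HEK293T cells expressing luciferase-tagged ELG1 (2,000/well) received 5-Fluorouridine plus compound or DMSO for 16 hr at 37 °C. Luciferase was read by ONE-Glo luminescence after 30 min at room temperature.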
# Potency means the concentration at half of the fitted maximal effect.
row,Compound,Potency
1,COc1ccc(Cl)cc1C(=O)NNC(=S)NC(=O)/C=C/c1ccco1,"inconclusive: 29.1 µM [inhibitor, single point]"
2,C#CCOCCOCCOCCNc1nc(N2CCN(C(=O)CCCCCCCCCCNC(=O)[C@@H]([C@H](C)O)n3cc(C)nn3)CC2)nc(N2CCN(C(=O)CCCCCCCCCCNC(=O)[C@@H]([C@H](C)O)n3cc(C)nn3)CC2)n1,"inconclusive: 31.6 µM [inhibitor, single point]"
3,COc1ccc(NC(=O)c2cc(-c3ccccc3)nc3c2cnn3C(C)C)cc1,"inconclusive: 14.6 µM [inhibitor, single point]"
4,CC/C(=N\NC(=S)Nc1ccc(OC)cc1)c1ccc(OC(F)F)cc1,inactive
5,Clc1nccnc1N/N=C/c1ccc(Br)cc1,"inconclusive: 10.3 µM [activator, partial curve]"
6,CC(C)Oc1cccc(C(=O)C2CCCN(C(=O)CCc3cnn(C)c3)C2)c1 (configuration not stated),"inconclusive: 11.6 µM [activator, partial curve]"
7,CCN(CC)S(=O)(=O)c1ccc(N2CCOCC2)c(NC(=O)c2c3c(nc4ccccc24)CCC3)c1,active: 13 µM
8,C=CCn1c(SCC(=O)NCC)nnc1-c1cc2c(s1)CCC(CC)C2 (configuration not stated),"inconclusive: 29.1 µM [activator, single point]"
9,CC(C#N)On1c(SC(C)C#N)nc2ccccc2c1=O (configuration not stated),inactive
10,CCc1ccc(CNC(=O)C(=O)NCC2CCCO2)cc1 (configuration not stated),inactive
11,Cc1cc(C)c(S(=O)(=O)Nc2ccc[nH]c2=O)c(C)c1,inactive
12,CS(=O)(=O)N1CCN(C(=O)NC23CC4CC(CC(C4)C2)C3)CC1,"inconclusive: 18.4 µM [activator, partial curve, poor fit]"
13,CNC(=O)COC(=O)c1ccc(OCC(=O)Nc2ccccc2OC)c(OC)c1,"inconclusive: 11.6 µM [activator, partial curve, poor fit]"
14,Cc1c(NC(=O)/C(C#N)=C/C2CC=CCC2)c(=O)n(-c2ccccc2)n1C (configuration not stated),"inconclusive: 23.1 µM [activator, single point]"
15,CCOc1ccccc1C(=O)N1CCN(c2cccc(Cl)c2)CC1,inactive
16,CC1(C)CC(NC(=O)COc2cc3oc(=O)c4c(c3cc2Cl)CCC4)CC(C)(C)N1,"inconclusive: 16.4 µM [activator, partial curve, poor fit]"
17,Cc1c(C(=O)Nc2ccc(F)c(F)c2)oc2ccc(S(=O)(=O)N3CCCCC3)cc12,"inconclusive: 20.6 µM [inhibitor, partial curve]"
18,CC(=O)c1c(C)[nH]c(C(=O)OCC(=O)N(CC(C)C)C2CCS(=O)(=O)C2)c1C (configuration not stated),"inconclusive: 18.3 µM [activator, partial curve, poor fit]"
19,Cc1cn([C@H]2C=C[C@@H](CO)O2)c(=O)[nH]c1=O,"inconclusive: 18.3 µM [activator, partial curve, poor fit]"
20,CN(Cc1ccc(OC(F)F)cc1)C(=O)/C=C/c1ccc(S(=O)(=O)N2CCOCC2)cc1,active: 16.4 µM
21,CSCCCNC(=S)N1CCc2ccccc2C1,"inconclusive: 14.6 µM [inhibitor, partial curve]"

row,Compound,Potency
1,C1CN(CCN2CCOCC2)CCN1,inactive
2,COc1cc(-n2nnnc2SC)c(OC)cc1Cl,inactive
3,COc1cccc(-c2nn3c(-c4ccccn4)nnc3s2)c1,"inconclusive: 29.1 µM [inhibitor, single point]"
4,CCCc1cc(C(=O)Nc2cccc3ccccc23)n(C)n1,"inconclusive: 23.1 µM [inhibitor, single point]"
5,N=C1C2=C3Sc4ccccc4N3CCCC2=NN1c1cccc(S(=O)(=O)O)c1,"inconclusive: 20.6 µM [activator, single point]"
6,CCCCn1c(=O)n(CC(=O)NCc2ccc(C)cc2)c(=O)c2c1nc(CO)n2CCC,"inconclusive: 13 µM [inhibitor, single point]"
7,C[C@H]1CN=C(N(C)C)N1CCc1ccccc1,inactive
8,O=C(CN1CCOCC1)Nc1ccc([N+](=O)[O-])cc1Br,"inconclusive: 23.1 µM [inhibitor, partial curve, poor fit]"
9,NC(=O)c1ccsc1NC(=O)COC(=O)c1ccc(Cl)c(N)c1,active: 11.6 µM
10,CC(C)[C@H](Nc1ccc(S(=O)(=O)N2CCOCC2)cc1[N+](=O)[O-])C(=O)OCC(=O)N(C(C)C)C(C)C,"inconclusive: 16.4 µM [inhibitor, partial curve, poor fit]"
11,CCOC(=O)c1c(C)[nH]c(C)c1C(=O)Cn1nnc(-c2ccccc2C)n1,inactive
12,O=S(=O)(CC(c1ccccc1)N1CCCCC1)c1ccc(Cl)cc1 (configuration not stated),inactive
13,CCNc1nc(Cl)nc(-c2cn(-c3ccccc3)c3ccccc23)n1,"inconclusive: 29.1 µM [activator, single point]"
14,O=C(Nc1nc(-c2nc3ccccc3s2)cs1)c1ccc(S(=O)(=O)N2CCOCC2)cc1,"inconclusive: 4.11 µM [activator, partial curve, poor fit]"
15,CC(=O)N1c2ccc(S(=O)(=O)N3CCCC(C(=O)Nc4cccc(F)c4)C3)cc2CC1C (configuration not stated),"inconclusive: 0.82 µM [inhibitor, partial curve, poor fit]"
16,CC(C)(C)n1nnnc1C(c1ccncc1)N(Cc1ccccc1)Cc1ccco1 (configuration not stated),inactive
17,Cc1ccccc1-c1nc2ccccc2c(=O)n1/N=C/c1ccccc1[N+](=O)[O-],"inconclusive: 20.6 µM [inhibitor, single point]"
18,CCC(C)c1ccc(NC(=O)COC(=O)C2CCCC2)cc1 (configuration not stated),"inconclusive: 29.1 µM [activator, single point]"
19,CCOC(=O)c1c(-c2ccccc2)oc2ccc(OCC(O)CN(C)C)cc12 (configuration not stated),"inconclusive: 29.1 µM [inhibitor, single point]"
20,COc1ccc(C(=O)Nc2cc(OC)c(Cl)cc2OC)cc1,"inconclusive: 16.4 µM [activator, partial curve]"
21,CC(=O)c1cccc(NC(=O)CN(c2ccc(C)cc2)S(=O)(=O)c2cccc3nonc23)c1,inactive

# Structures listed so far that have a thiophene ring, fused or not (2):
row,Compound,Potency
8,C=CCn1c(SCC(=O)NCC)nnc1-c1cc2c(s1)CCC(CC)C2 (configuration not stated),"inconclusive: 29.1 µM [activator, single point]"
9,NC(=O)c1ccsc1NC(=O)COC(=O)c1ccc(Cl)c(N)c1,active: 11.6 µM
